Measurements published in PubChem BioAssay AID504834 (National Center for Advancing Translational Sciences (NCATS), 2011).
Hit rate of the full screen: of about 320,000 compounds, about 22,000 (6.9%) were called active. Inconclusive means that the source gave no clear call. Such entries were picked first, then a sample of the others. Calls come from the whole dose curve; as a rule, active = well fitted inhibition curve with a large enough effect; inconclusive = small, poorly fitted or top-dose-only effect, or another doubt; inactive = no such curve, though single readings can be large or run the other way. Potencies beside an inconclusive call are fits to weak or partial responses and may not hold up.

Experiment: Primary qHTS for delayed death inhibitors of the malarial parasite plastid, 96 hour incubation
Conditions: P. falciparum luciferase reporter growth; series mostly up to 28.7 µM; activity change, negative = inhibition: at the top concentration
Outline: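 Readout is luminescence from an integrated firefly luciferase in P. falciparum. Red cells, 2% hematocrit and 0.05% parasitemia final, were cultured with compound through two parasite generations (96 hours) at 37 C, 5% CO2.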
% is set by controls: 0 for no effect and ±100 for the full control effect; potency is the fitted concentration of half-maximal effect.

Structure (SMILES) | Potency | activity change, negative = inhibition
CCCC/C(O)=C1\C(=O)CC(C)(C)CC1=NCCCCCC(=O)O | inconclusive: 14.7 µM [inhibitor, partial curve, poor fit] | 
COc1ccc(C2=Nc3nc(-c4ccccc4)cn3C(c3ccc(OC)cc3)C2)cc1 (configuration not stated) | inconclusive: 18.5 µM [inhibitor, single point] | 
CN(C)CCNC(=O)c1ccc(COc2ccc(Cl)cc2Cl)cc1 |  | inactive: 34.6%
O=C(NNc1nc2c(F)cccc2s1)c1ccccc1 |  | inactive: 68.5%
CN(Cc1cccnc1)Cc1cn(C)nc1-c1cccc(Cl)c1 | inconclusive: 0.329 µM [inhibitor, full curve, poor fit] | 
O=C(c1ccco1)N1N=C(c2ccc(Cl)cc2)CC1(O)C(F)(F)F (configuration not stated) | inconclusive: 18.5 µM [inhibitor, single point] | 
NC(=O)c1c(N)sc2c1CCCCC2 | inconclusive: 18.5 µM [inhibitor, single point] | 
CC1(C)OC(=O)C(=NNc2ccc(Cl)cc2)C(=O)O1 |  | inactive: -7.92%
N/C(COc1ccccc1)=N\NC(=O)c1cccnc1Oc1ccccc1 | inconclusive: 2.62 µM [inhibitor, partial curve, poor fit] | 
O=C(/C=C/c1cccc(Cl)c1)Nn1c(-c2cccs2)nc2ccccc2c1=O | active: 2.08 µM | 
CCCN(/C=N/c1sc2c(c1C#N)CCCCC2)CCC |  | inactive: 0.467%
Cc1cc(Cl)ccc1C(=O)C1CCCN(C(=O)c2cscn2)C1 (configuration not stated) | inconclusive: 8.28 µM [inhibitor, partial curve] | 
CC(=O)c1ccc(NC(=O)CCc2ccc(C)o2)cc1 |  | inactive: 50.5%
CCS(=O)(=O)N1CCC(C(=O)Nc2ccc3c(c2)CCC3)CC1 | inconclusive: 20.8 µM [inhibitor, single point] | 
COC(=O)c1ccccc1NC(=O)N1CCN(c2ccccc2F)CC1 | inconclusive: 18.5 µM [inhibitor, single point] | 
O=C(Nc1ccc(Cl)c([N+](=O)[O-])c1)Nc1nc2ccccc2s1 | active: 10.4 µM | 
CN(C)/N=C/C=C1\CC/C(=C\c2ccc(Br)cc2)C1=O |  | inactive: -4.19%
CCOc1ccc(-c2nnc(SCC(=O)NC3CC3)o2)cc1 | inconclusive: 18.5 µM [inhibitor, single point] | 
COc1ccccc1-c1nn(-c2ccccc2)cc1C(=O)N1CCc2ccccc2C1 | active: 3.7 µM | 
CCOC(=O)c1c(NC(=O)COc2cccc3c2CCN(C)C3=O)sc2c1CCC2 | active: 13.1 µM | 
COc1ccc(-c2nnn(CC(=O)N(CC(=O)NC3CCCC3)c3ccccc3F)n2)cc1OC |  | inactive: -6.31%
CN(CC(=O)Nc1ccc(N2CCOCC2)cc1)C(=O)CCc1cc(C(C)(C)C)c(O)c(C(C)(C)C)c1 | active: 9.28 µM | 

Pulled one by one from the list above (2):
Structure (SMILES) | Potency | activity change, negative = inhibition
CN(Cc1cccnc1)Cc1cn(C)nc1-c1cccc(Cl)c1 | inconclusive: 0.329 µM [inhibitor, full curve, poor fit] | 
O=C(NNc1nc2c(F)cccc2s1)c1ccccc1 |  | inactive: 68.5%
